These are yes or no findings as the source states them, for the method shown. In cells and extracts the contact can be indirect. Some results given as binding are weak or reduced against the parent protein; the word gives no strength.
Target: GFP-YBX1 (aa 130–205) (UniProt P67809)
Assay: co-IP; ACHN cells transfected with GFP-YBX1 or GFP-tagged YBX1 domains; lysates precipitated with GFP-Trap_MA beads; western blot with anti-G3BP1 (endogenous G3BP1)

Amino acid sequences for entries named in this document (tags omitted). Residues count along the entry.
UniProt P67809, residues 130-205: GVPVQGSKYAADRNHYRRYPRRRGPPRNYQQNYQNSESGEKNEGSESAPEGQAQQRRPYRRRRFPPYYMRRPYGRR
UniProt Q13283: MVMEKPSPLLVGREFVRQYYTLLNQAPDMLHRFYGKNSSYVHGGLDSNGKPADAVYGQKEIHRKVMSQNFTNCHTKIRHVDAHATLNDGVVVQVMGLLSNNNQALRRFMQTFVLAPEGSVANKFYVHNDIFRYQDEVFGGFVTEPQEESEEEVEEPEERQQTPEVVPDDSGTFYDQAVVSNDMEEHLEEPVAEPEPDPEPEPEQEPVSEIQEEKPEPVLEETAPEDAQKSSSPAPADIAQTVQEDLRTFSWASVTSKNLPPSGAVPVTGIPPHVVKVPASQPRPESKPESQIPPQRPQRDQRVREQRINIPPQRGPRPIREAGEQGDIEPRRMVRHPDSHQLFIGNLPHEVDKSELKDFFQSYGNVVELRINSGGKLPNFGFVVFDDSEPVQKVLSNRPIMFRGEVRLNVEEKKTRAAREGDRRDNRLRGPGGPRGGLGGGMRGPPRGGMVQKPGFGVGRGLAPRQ

**Q.** Which binding does the source give for “Ras-GTPase activating protein SH3 domain binding proteins 1 (G3BP1), endogenous (from UniProt Q13283 1-466)” here?
**A.** The binding was “binds”.
